These results are taken from patent US20220362396A1, “AMINO-PYRAZINECARBOXAMIDE COMPOUNDS, CONJUGATES, AND USES THEREOF” (Silverback Therapeutics, Inc., priority 2018, published 2022).

Chains of the proteins cited; added tags and fusions are not shown. Residues count along the entry.
UniProt P37173, 23-567 limits assumed: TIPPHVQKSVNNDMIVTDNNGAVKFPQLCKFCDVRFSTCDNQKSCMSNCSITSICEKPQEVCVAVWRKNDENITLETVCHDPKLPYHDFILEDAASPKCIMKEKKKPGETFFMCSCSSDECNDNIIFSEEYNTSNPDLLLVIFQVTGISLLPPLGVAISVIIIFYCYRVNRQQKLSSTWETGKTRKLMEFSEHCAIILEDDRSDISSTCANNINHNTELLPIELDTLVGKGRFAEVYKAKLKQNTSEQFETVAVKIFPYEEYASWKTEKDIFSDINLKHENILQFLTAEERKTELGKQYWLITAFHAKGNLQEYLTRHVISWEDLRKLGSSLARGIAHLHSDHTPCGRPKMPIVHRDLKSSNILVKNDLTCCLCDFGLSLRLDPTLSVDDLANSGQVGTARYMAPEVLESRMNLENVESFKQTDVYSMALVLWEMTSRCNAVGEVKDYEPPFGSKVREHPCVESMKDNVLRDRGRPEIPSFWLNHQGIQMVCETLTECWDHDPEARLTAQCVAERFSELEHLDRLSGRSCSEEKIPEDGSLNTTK

SMILES strings stand for the structures. The match of structure and compound is tentative.

For orientation: EC50 means the concentration that produces a half-maximal response. As a reminder, the IC50 is the point on the concentration scale where inhibition reaches its midpoint.

For assay [1], the system named is TGFβ/SMAD Signaling Pathway SBE reporter cell line. Kind of assay: TGFβ reporter assay, in vitro small molecule screening (luciferase). To be noted: read-out: EC50 (reporter assay), TGFβ stimulation, luminescence. The procedure:
TGFβ/SMAD Signaling Pathway SBE reporter cell line was obtained from BPS Bioscience. Cells were passed, expanded, and stored in liquid nitrogen as per the supplier's instructions with the exception that growth media is changed to DMEM-C with Geneticin (DMEM supplemented with 10% fetal bovine serum, 1×NEAA, 1 mM Pyruvate, 2 mM glutamine, 50 μg/mL penicillin, 50 U/mL streptomycin and 400 μg/mL of Geneticin). The assay media was MEM supplemented with 0.5% fetal bovine serum, 1×NEAA, 1 mM Pyruvate, 50 μg/mL penicillin and 50 U/mL streptomycin.
Test samples (at desired concentrations diluted in assay media) were added to a 96-well assay plate, 20 μL per well. Reporter cells were harvested from the tissue culture flasks by incubation in small quantity of PBS at 37° C. for two minutes after the media in the flask is removed and cells rinsed with PBS. Cells were counted and diluted in the assay media at approximately 0.5×10^6 cells/mL and then 80 μL/well of cells were added to the assay plate containing the 20 μL/well of test samples (or media only), and incubated for approximately 5-6 hours at 37° C. in a 5% CO2 humidified incubator. […] Luciferase substrate solution is subsequently added at 100 μL per well, incubated in the dark at room temperature for 15 min, and luminescence is measured using a luminometer. […]
On the technique in general: In a reporter assay the amount or activity of a reporter protein is the signal.

A further assay has as its target TGFBR2 (Homo sapiens, UniProt P37173). As to the kind of experiment: TGFBR2 RBC assay (enzyme inhibition assay, Reaction Biology Corp.). To be noted: read-out: IC50 (enzyme inhibition assay). The protocol: Compounds of the disclosure were also assayed by Reaction Biology Corp. using the TGFBR2 RBC assay (enzyme inhibition assay). […] NT refers to not tested.

Regarding `Nc1ncc(N2CCC(N)CC2)nc1C(=O)Nc1cnccc1N1CCOCC1`, in assay [1], the EC50 was > 1000 nM. For the same molecule, at TGFBR2, the IC50 was > 1000 nM.
As for `Cc1nc(N)c(C(=O)Nc2cnccc2N2CCOCC2)nc1-c1ccc(OCCNC(=O)OCc2ccccc2)cc1`, in assay [1], the EC50 is > 1000 nM. Moreover, on TGFBR2, the IC50 was > 1000 nM.
